Source: the odorant receptor screen of Mainland et al. (2015)
“And” between values parts separate entries of the source, which are not always exact repeats. Equal entries are not always repeated. Some of the results follow. Each value is one well over the wells without odorant, computed here; the data are noisy.

What was measured:
Experiment in all cases: odorant receptor activation (CRE luciferase / Renilla) (fold of no-odor wells); higher = more activation
Details in all cases: 100 µM
OR1J2 clone 1443 = system: OR1J2 clone 1443
OR1J4 clone 1429 = system: OR1J4 clone 1429
OR1K1 clone 1315 = system: OR1K1 clone 1315
OR1L1 clone 1379 = system: OR1L1 clone 1379
OR1L3 clone 1090 = system: OR1L3 clone 1090
OR1L4 G234R clone 1102 = system: OR1L4 G234R clone 1102
[1] = system: OR1L6 Q23K/C150Y/I215T/R221Q/M223I/G234R clone 1539
OR1L8 clone 1088 = system: OR1L8 clone 1088
OR1M1 clone 1198 = system: OR1M1 clone 1198
OR1N1 clone 1463 = system: OR1N1 clone 1463
[2] = system: OR1N2 W23R/V230G/T287M clone 1105
[3] = system: OR1N2 W37R/V244G/T301M clone 1350
OR1N2 clone 1505 = system: OR1N2 clone 1505
[4] = system: OR1Q1 Q24R/I163M clone 1103
OR1S2 I46T clone 1137 = system: OR1S2 I46T clone 1137
OR2A1 clone 1078 = system: OR2A1 clone 1078
OR2A12 clone 1085 = system: OR2A12 clone 1085
OR2A14 Indel clone 1540 = system: OR2A14 Indel clone 1540
OR2A14 clone 1083 = system: OR2A14 clone 1083
OR1S1 clone 1455 = system: OR1S1 clone 1455

Compound | odorant receptor activation (OR1J2 clone 1443) | odorant receptor activation (OR1J4 clone 1429) | odorant receptor activation (OR1K1 clone 1315) | odorant receptor activation (OR1L1 clone 1379) | odorant receptor activation (OR1L3 clone 1090) | odorant receptor activation (OR1L4 G234R clone 1102) | odorant receptor activation [1] | odorant receptor activation (OR1L8 clone 1088) | odorant receptor activation (OR1M1 clone 1198) | odorant receptor activation (OR1N1 clone 1463) | odorant receptor activation [2] | odorant receptor activation [3] | odorant receptor activation (OR1N2 clone 1505) | odorant receptor activation [4] | odorant receptor activation (OR1S2 I46T clone 1137) | odorant receptor activation (OR2A1 clone 1078) | odorant receptor activation (OR2A12 clone 1085) | odorant receptor activation (OR2A14 Indel clone 1540) | odorant receptor activation (OR2A14 clone 1083) | odorant receptor activation (OR1S1 clone 1455)
CC12C=CCC1C1CCC3CC(=O)CCC3(C)C1CC2 (centres undefined) [androstenone] | 1.06 | 1.34 | 1.21 | 0.732 | 16.9 | 13.5 | 1.14 | 1.21 | 4.61 | 0.828 | 3.07 | 0.89 | 1.13 | 12.1 | 3.72 | 2.43 | 1.55 | 1.04 | 1.78 | 
C=CC(C)(O)CCC=C(C)C (centres undefined) [linalool] | 0.814 | 0.915 | 0.258 | 0.947 | 1.23 | 1.11 | 0.847 | 1.16 | 1.19 | 1.16 | 1.14 | 0.736 | 1.02 | 1.27 | 1.35 | 1.24 | 1.42 | 1.13 | 1.14 | 0.616
CCC1(O)C2(C)CCC(C2)C1(C)C (centres undefined) [2-ethylfenchol] | 0.93 | 1.16 | 0.76 | 1.07 | 28.7 | 31.3 | 1.46 | 2.3 | 0.852 | 1.25 | 4.33 | 1.29 | 1.4 | 31.3 | 1.07 | 4.59 | 2.57 | 1.14 | 3.82 | 0.874
CCCCCC(C)=O [2-heptanone] | 1.03 | 0.98 | 2.16 | 0.929 | 1.07 | 0.739 |  | 0.432 | 1.32 | 0.835 and 0.802 | 0.752 | 0.893 and 0.603 | 0.97 and 0.686 | 0.503 | 1.2 | 0.568 | 1.07 |  | 0.543 | 
O=C1CCCCCCCCCCCC(=O)OCCO1 [ethylene brassylate] | 1.69 | 1.51 | 1.36 | 2.37 | 1.31 | 1.69 | 0.831 | 1.65 | 2.18 | 1.75 | 1.85 | 1.89 | 1.12 | 1.58 | 2.34 | 1.03 | 1.57 | 1.61 | 1.44 | 1.82
COc1cc(C=O)ccc1O [vanillin] | 1.07 | 1.08 | 1.65 | 1.25 | 1.21 | 0.954 | 0.896 | 1.01 | 1.32 | 1.07 | 1.03 | 0.828 | 1.1 | 1.06 | 1.21 | 0.955 | 0.783 | 0.962 | 1.12 | 1.4
CCCCCOC(C)=O [n-amyl acetate] | 0.616 | 0.95 | 0.659 | 0.78 | 2.11 | 1.78 |  | 1.87 | 0.767 | 0.617 and 1.03 | 1.32 | 0.967 and 0.834 | 0.673 and 0.832 | 0.966 | 0.572 | 2.17 | 1.24 |  | 1.53 | 1.28
